Data reported in paper PMC11699347, “Heme regulates protein interactions and phosphorylation of BACH2 intrinsically disordered region in humoral response” (iScience, 2024).
No constants are given. Whether binding was seen depends on the method and setting. Binding seen in cells or lysates may run through a third protein. A yes stands for co-enrichment or nearness to the bait. Other partners may have been found.

Protein sequences, listed by entry. Tags and fused reporters are not part of them. Residues count along the entry.
UniProt P97303, residues 331-520: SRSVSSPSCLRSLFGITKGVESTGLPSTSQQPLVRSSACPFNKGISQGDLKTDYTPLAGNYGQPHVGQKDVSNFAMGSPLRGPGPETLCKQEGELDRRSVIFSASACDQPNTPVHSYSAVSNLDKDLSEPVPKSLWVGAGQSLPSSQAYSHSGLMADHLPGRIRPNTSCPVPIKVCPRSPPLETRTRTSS
UniProt Q6ZQ08: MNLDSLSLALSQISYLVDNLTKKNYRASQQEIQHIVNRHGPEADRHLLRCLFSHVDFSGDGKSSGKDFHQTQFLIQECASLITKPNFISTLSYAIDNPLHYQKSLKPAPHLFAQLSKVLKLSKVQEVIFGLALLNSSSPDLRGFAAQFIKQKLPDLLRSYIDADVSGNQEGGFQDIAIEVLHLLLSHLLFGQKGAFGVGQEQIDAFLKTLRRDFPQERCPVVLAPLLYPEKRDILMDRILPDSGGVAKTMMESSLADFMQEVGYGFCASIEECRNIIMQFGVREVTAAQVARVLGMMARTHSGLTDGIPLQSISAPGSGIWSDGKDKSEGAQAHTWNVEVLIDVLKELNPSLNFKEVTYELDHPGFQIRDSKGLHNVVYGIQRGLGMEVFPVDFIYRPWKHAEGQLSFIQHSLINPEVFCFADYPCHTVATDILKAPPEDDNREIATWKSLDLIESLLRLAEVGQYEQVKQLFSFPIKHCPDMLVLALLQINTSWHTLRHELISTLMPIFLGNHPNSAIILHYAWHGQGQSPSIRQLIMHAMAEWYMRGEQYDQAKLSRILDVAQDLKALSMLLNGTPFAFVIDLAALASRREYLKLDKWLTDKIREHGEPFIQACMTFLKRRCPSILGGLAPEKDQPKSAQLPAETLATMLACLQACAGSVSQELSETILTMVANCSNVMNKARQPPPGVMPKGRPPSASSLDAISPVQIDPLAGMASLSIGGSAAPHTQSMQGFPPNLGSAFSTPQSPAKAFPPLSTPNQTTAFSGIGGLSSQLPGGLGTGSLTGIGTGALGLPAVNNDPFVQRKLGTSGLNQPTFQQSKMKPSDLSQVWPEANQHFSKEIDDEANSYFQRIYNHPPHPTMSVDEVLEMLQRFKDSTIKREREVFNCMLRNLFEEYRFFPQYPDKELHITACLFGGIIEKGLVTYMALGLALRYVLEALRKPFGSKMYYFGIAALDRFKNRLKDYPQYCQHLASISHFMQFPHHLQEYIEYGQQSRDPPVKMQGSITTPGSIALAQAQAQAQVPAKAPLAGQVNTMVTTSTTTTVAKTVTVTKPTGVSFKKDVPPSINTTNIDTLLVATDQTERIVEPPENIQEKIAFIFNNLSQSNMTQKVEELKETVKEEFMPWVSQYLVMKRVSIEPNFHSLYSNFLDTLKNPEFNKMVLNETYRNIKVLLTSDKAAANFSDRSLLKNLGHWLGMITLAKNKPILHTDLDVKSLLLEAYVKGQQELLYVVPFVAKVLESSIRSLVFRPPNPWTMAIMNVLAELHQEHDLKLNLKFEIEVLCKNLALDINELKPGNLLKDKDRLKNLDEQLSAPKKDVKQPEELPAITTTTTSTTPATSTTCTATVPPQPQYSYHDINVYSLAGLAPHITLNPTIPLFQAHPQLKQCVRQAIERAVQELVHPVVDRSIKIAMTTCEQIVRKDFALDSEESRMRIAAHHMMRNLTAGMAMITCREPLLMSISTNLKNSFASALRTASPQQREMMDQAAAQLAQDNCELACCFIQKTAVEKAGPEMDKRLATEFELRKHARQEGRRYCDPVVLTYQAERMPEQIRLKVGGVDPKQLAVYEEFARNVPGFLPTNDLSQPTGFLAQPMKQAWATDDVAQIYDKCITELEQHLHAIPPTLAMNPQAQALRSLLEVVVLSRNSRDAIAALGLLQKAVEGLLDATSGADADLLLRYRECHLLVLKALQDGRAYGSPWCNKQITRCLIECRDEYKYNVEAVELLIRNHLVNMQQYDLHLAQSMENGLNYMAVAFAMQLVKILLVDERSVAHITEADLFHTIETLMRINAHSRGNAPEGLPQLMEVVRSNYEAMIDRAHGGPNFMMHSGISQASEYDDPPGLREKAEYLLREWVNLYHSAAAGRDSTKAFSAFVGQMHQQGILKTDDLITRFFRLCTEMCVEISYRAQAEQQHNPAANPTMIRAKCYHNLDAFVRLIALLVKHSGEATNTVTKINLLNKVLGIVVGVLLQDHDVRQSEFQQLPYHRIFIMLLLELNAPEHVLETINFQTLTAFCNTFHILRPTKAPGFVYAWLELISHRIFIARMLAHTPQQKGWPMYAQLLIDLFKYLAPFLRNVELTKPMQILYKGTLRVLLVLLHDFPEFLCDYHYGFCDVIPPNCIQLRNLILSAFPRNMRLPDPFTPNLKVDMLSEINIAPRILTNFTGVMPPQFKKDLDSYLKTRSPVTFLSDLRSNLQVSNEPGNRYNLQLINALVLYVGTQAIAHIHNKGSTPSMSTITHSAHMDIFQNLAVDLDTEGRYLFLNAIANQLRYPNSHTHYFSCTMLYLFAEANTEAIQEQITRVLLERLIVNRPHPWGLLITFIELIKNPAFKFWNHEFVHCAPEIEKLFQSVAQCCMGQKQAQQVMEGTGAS
UniProt P13864: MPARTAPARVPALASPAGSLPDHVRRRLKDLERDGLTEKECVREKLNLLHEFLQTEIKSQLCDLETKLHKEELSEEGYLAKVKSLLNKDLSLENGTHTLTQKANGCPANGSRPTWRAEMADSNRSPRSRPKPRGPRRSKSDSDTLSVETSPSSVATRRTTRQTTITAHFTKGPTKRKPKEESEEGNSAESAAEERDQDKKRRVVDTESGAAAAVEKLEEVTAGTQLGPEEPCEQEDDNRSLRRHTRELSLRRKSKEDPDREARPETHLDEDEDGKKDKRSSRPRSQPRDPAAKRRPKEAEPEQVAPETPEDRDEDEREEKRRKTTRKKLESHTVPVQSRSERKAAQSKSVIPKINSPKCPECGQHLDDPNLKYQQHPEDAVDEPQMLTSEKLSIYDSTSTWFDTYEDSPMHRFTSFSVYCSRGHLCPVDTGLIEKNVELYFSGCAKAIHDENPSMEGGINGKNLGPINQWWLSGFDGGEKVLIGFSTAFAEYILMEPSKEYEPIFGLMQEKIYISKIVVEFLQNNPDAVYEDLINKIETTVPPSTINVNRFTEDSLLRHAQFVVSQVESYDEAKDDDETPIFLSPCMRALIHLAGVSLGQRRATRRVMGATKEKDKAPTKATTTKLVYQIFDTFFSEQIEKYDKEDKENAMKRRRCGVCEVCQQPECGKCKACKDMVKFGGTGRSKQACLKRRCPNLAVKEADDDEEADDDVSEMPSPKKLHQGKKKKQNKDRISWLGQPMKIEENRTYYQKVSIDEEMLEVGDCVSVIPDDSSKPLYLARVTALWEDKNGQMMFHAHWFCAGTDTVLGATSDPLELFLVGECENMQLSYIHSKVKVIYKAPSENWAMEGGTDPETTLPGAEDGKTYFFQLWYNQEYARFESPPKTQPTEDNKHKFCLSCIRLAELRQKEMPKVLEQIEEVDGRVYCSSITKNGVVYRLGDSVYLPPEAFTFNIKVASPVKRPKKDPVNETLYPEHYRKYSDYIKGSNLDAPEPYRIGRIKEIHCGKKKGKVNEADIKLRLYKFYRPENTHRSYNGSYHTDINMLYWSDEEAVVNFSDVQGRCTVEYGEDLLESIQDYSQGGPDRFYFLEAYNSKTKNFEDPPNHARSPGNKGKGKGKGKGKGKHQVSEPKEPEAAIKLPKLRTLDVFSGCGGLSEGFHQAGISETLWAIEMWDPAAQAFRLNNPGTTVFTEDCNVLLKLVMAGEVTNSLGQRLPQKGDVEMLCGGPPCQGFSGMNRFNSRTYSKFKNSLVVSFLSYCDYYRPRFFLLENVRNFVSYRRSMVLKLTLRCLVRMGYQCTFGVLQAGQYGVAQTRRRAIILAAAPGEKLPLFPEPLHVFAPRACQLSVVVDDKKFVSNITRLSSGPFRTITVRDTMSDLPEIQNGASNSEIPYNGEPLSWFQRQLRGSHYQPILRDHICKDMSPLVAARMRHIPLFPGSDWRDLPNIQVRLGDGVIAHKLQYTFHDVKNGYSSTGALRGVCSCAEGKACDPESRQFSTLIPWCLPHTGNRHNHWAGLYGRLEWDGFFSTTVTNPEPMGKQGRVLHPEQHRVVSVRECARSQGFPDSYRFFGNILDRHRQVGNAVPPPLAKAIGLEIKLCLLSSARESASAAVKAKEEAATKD
UniProt Q9CXY6: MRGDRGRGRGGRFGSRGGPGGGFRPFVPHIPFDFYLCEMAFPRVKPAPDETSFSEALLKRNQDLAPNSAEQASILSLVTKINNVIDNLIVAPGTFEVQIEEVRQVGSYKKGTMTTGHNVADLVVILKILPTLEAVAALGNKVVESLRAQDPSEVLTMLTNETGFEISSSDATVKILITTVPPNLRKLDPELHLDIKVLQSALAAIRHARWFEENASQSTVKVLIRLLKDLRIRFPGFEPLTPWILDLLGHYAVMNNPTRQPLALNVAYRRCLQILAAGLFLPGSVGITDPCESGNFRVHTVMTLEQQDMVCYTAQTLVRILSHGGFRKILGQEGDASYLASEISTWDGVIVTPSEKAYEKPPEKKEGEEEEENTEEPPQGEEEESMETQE
UniProt Q91ZW3: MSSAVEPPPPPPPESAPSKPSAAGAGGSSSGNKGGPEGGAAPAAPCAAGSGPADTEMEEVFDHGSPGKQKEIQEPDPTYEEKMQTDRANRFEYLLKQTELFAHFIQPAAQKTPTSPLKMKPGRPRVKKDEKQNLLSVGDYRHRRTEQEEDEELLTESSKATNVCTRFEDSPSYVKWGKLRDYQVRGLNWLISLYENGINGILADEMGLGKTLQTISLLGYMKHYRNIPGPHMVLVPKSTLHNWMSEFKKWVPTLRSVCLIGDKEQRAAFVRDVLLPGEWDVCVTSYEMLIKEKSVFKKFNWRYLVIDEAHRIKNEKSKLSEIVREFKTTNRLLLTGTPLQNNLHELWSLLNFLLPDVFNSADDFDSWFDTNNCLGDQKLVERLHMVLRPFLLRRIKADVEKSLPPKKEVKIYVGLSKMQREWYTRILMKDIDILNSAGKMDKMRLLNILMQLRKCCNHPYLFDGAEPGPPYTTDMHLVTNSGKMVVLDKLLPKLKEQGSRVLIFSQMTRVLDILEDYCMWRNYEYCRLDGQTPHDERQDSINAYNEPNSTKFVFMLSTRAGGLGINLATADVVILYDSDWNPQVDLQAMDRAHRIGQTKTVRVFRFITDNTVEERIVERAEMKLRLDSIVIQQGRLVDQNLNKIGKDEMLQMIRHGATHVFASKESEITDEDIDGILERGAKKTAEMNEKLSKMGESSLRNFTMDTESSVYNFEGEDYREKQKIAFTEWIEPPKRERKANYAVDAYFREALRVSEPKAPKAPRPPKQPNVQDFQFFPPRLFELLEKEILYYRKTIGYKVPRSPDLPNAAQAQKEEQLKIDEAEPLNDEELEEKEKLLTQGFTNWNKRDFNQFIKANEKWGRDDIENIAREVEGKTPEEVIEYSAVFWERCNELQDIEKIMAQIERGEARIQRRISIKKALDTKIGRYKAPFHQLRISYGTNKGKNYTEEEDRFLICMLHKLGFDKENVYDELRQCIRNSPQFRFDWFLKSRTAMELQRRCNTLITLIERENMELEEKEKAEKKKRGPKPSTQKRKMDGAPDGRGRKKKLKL

B1: Microtubule-associated protein 1S (protein, UniProt Q8C052 1-973)
chain: MAAVMAAPEAVEAPSSLLLLVVGGECGCPGLLAYVMEELERGVRSWEDVDPAVCSLDEQLKAFVSRHSATFSSIVKGQRSLHHRGETLETLVLLNPSDKSLCDELRNLLMDPAPHKLLVLAGPCLEETGELLLQTGGFSAHHFLQVLGDKEVQDALASAPAAPALTVSCPTFGDWALLGPVPGLQLRLNPPAQLPASEGLRAFLEYVAESLEPPSPFELLEPPAAGGFLRLARPCCYVFPGGLGDAAFFAVNGFTVLVNGGSNPKSSFWKLVRHLDRVDAVLVTHAGADSLPGLNSLLRRKLAEREAAAGPQGQHEERLRRLLSPALGVVFLNAREAASRLRGGEDEAVCARSLLRSLGIAPLPLQRGPQPSCPTVLFEKLGVGRLELFVLHPPPGDPAAPACALLVWQPAAPGDKVVRVLFPGRTPPARLLDGLQRLQHLPCLRRPVVTTHDLEAPSRANSQDSLASRDSARKEPVRGTVGSIANRSTVRREPALATRDQKKDTRSGPTQPTARDTRRSGPGVVNTKPRVSQNGPRAPVLAAPLTAPVAECPGEAENILESERPPAPSPTLSPAQSPPPTAPGNSPERLSLSPLRPEPAPDASPSATTPTLTTPSLPAELGSPHSTEVDESLSVSFEQVLPAGDPGLSLPLRLARRSTSPHDVDLCLVSPCEFSHRKPPPPASPGSSDSSARSQERPPETPPTSVSESLPTLSDSDPVPVADSDDDAGSESAARDPPPTPRVPPPLPDVPGICMVDPEALPPRARQPLNTTNPSRSRKAPARPSSASATPRAATVAAKTKGPAGDRNRPLSARSEPADRPGRVPLTRKPSVPKTVPKMASATRLSSGPSGRPAPLAAGSPVYLDLAYLPGGGAGHLDQNFFLRVRALCYVISGQGQRQEEGLRAVLDALLAGKRQWDLDLQVTLIPTFDSAVMHRWYEETHAQHQALGIRVLGSGSLVSMQDEAFPACKVEF
B2: Cleavage and polyadenylation specificity factor subunit 1 (protein, UniProt Q9EPU4 1-1441)
chain: MYAVYKQAHPPTGLEFTMYCNFFNNSERNLVVAGTSQLYVYRLNRDAEALTKNDGSTEGKAHREKLELVASFSFFGNVMSMASVQLAGAKRDALLLSFKDAKLSVVEYDPGTHDLKTLSLHYFEEPELRDGFVQNVHTPRVRVDPDGRCAAMLIYGTRLVVLPFRRESLAEEHEGLMGEGQRSSFLPSYIIDVRALDEKLLNIIDLQFLHGYYEPTLLILFEPNQTWPGRVAVRQDTCSIVAISLNITQKVHPVIWSLTSLPFDCTQALAVPKPIGGVVIFAVNSLLYLNQSVPPYGVALNSLTTGTTAFPLRTQEGVRITLDCAQAAFISYDKMVISLKGGEIYVLTLITDGMRSVRAFHFDKAAASVLTTSMVTMEPGYLFLGSRLGNSLLLKYTEKLQEPPASSVREAADKEEPPSKKKRVEPAVGWTGGKTVPQDEVDEIEVYGSEAQSGTQLATYSFEVCDSMLNIGPCANAAVGEPAFLSEEFQNSPEPDLEIVVCSGYGKNGALSVLQKSIRPQVVTTFELPGCYDMWTVIAPVRKEEEETPKAESTEQEPSAPKAEEDGRRHGFLILSREDSTMILQTGQEIMELDTSGFATQGPTVFAGNIGDNRYIVQVSPLGIRLLEGVNQLHFIPVDLGAPIVQCAVADPYVVIMSAEGHVTMFLLKSDSYGGRHHRLALHKPPLHHQSKVIALCLYRDVSGMFTTESRLGGARDELGGRSGSEAEGLGSETSPTVDDEEEMLYGDSSALFSPSKEEARRSSQPPADRDPAPFKADPTHWCLLVRENGTMEIYQLPDWRLVFLVKNFPVGQRVLVDSSFGQPTTQGEVRKEEATRQGELPLVKEVLLVALGSRQSRPYLLVHVDQELLIYEAFPHDSQLGQGNLKVRFKKVPHNINFREKKPKPSKKKAEGCSTEEGSGGRGRVARFRYFEDIYGYSGVFICGPSPHWLLVTGRGALRLHPMGIDGPIDSFAPFHNVNCPRGFLYFNRQGELRISVLPAYLSYDAPWPVRKIPLRCTAHYVAYHVESKVYAVATSTNTPCTRIPRMTGEEKEFEAIERDDRYIHPQQEAFSIQLISPVSWEAIPNARIELEEWEHVTCMKTVSLRSEETVSGLKGYVAAGTCLMQGEEVTCRGRILIMDVIEVVPEPGQPLTKNKFKVLYEKEQKGPVTALCHCNGHLVSAIGQKIFLWSLRASELTGMAFIDTQLYIHQMISVKNFILAADVMKSISLLRYQEESKTLSLVSRDAKPLEVYSVDFMVDNAQLGFLVSDRDRNLMVYMYLPEAKESFGGMRLLRRADFHVGAHVNTFWRTPCRGAAEGPSKKSVVWENKHITWFATLDGGIGLLLPMQEKTYRRLLMLQNALTTMLPHHAGLNPRAFRMLHVDRRILQNAVRNVLDGELLNRYLYLSTMERSELAKKIGTTPDIILDDLLETDRVTAHF
B3: Protein strawberry notch homolog 2 (protein, UniProt Q7TNB8 1-1349)
chain: MLAVEPTMDGDFPPHELPPPGGGIQLQNRLLHCPWWGSFSPSLYPTFSSENQQFVGSTPFLGGQSCPETSYPTTATVPSFFSKSSDFPQDPSCLEDLSNASVFSSSVDSLSDIPDTPDFLQADSLNEVPTIWDVSTTSTTHDKLFIPSGPFSAPEDPVTSLSSTPLLISYQSHSQPEEEEGEEEEETEELGHAETYADYVPSKSKIGKQHPDRVVETSTLSSVPPPDITYTLALPTSDNSTLSALQLEAITYACQQHEVLLPSGQRAGFLIGDGAGVGKGRTVAGIIVENYLRGRKKALWFSASNDLKYDAERDLRDIEAPGIAVHALSKIKYGDNTTSEGVLFATYSALIGESQAGGQHRTRLRQILQWCGEGFDGVIVFDECHKAKNASSTKMGKAVLDLQSKLPQARVVYASATGASEPRNMIYMSRLGIWGEGTPFRTFEEFLHAIEKRGVGAMEIVAMDMKVSGMYIARQLSFSGVTFRIEEIPLSPAFQQVYNRAARLWAEALSVFQQAADWIGLESRKSLWGQFWSAHQRFFKYLCIAAKVHRLVELAQQELSRDKCVVIGLQSTGEARTREVLDENEGRLDCFVSAAEGVFLSLIQKHFPSTRRRRDRGGGKRKRRPRGRGPKASRLSLEAAGVIRISDGSSTESDAGLDSDFNSSPESLVDDDVVIVDAPTHPTDDRGSLYPLQRDLQGPGVVERVERLKQGLLAKVRALGRELPVNTLDQLIHQLGGPECVAEMTGRKGRVVSRPDGTVVFESRAEQGLSIDHVNLREKQRFMSGEKLVAIISEASSSGVSLQADRRVQNQRRRVHMTLELPWSADRAIQQFGRTHRSNQVSAPEYVFLISELAGERRFASIVAKRLESLGALTHGDRRATESRDLSKYNFENKYGARALSRVLATIMGQTDNRVPLPQGYPGGDTAFFRDMKQGLLSVGIGSRESRSGCLDVEKDCSITKFLNRILGLEVHKQNALFQYFSDTFDHLIEIDKKEGRYDMGILDLAPGINEIHEESQQVFLAPGHPQDGQVVFYKQISVDRGMKWEEALTRSLELKGPYDGFYLSYKVRGSKMSCLLAEQNRGEYFTVYKPNIGRQSQLETLDSLCRKFHRVTVEEAREPWESSYALSLEHCSHTTWNQRCRLTQEGKCCAQGLRLRHHYMLCGALLRVWGRIAAVMADVSSSSYLQIVRLKTKDKKKQVGIKIPEGCVHRVLQELQLMDAEVKRRSTHGLAARPPTPRAITLPCGPGEVLDLTYSPPAEAFPTPPRFAFPSLPPPDPSSLMLGARDPATNPVELAHQSCDINFREVLEDMLRSLRAGPTETPAPLVGVGGGGTERQSVIHFSPPFPNS

biological target: FLAG-HA-BACH2-IDR (mouse) (UniProt P97303); experiment: affinity purification with mass spectrometry; ReCLIP: in-cell cross-linking (DSP, DTME) of BAL17 cells stably expressing FLAG-HA-BACH2-IDR, RIPA lysate, FLAG-M2 agarose, FLAG peptide elution, cross-links reversed with DTT, LC-MS/MS; compared with mock-infected cells

| binding | Molecule |
| --- | --- |
| binds | AT-rich interactive domain-containing protein 1A (from UniProt A2BH40 1-2283) |
| binds | CCR4-NOT transcription complex subunit 1 (from UniProt Q6ZQ08 1-2375) |
| binds | DNA (cytosine-5)-methyltransferase 1 (from UniProt P13864 1-1620) (enzyme) |
| binds | DNA-directed RNA polymerase I subunit RPA1 (from UniProt O35134 1-1717) |
| binds | Interleukin enhancer-binding factor 2 (from UniProt Q9CXY6 1-390) |
| binds | SWI/SNF-related matrix-associated actin-dependent regulator of chromatin subfamily A member 5 (from UniProt Q91ZW3 1-1051) |
| binds | TATA-binding protein-associated factor 172 (from UniProt E9QAE3 1-1848) |
| binds | Transcription activator BRG1 (from UniProt Q3TKT4 1-1613) |
| binds | B1 |
| binds | B2 |
| binds | B3 |
